Assay results reported in doi:10.1101/531053.
Results are given in words; binding and its absence hold for the method and conditions named. Some results given as binding are weak or reduced against the parent protein; the word gives no strength.

Chains of the proteins cited; added tags and fusions are not shown. Lines headed by an entry give the natural chain unless they say otherwise; changes in a name come on top.
UniProt P19137: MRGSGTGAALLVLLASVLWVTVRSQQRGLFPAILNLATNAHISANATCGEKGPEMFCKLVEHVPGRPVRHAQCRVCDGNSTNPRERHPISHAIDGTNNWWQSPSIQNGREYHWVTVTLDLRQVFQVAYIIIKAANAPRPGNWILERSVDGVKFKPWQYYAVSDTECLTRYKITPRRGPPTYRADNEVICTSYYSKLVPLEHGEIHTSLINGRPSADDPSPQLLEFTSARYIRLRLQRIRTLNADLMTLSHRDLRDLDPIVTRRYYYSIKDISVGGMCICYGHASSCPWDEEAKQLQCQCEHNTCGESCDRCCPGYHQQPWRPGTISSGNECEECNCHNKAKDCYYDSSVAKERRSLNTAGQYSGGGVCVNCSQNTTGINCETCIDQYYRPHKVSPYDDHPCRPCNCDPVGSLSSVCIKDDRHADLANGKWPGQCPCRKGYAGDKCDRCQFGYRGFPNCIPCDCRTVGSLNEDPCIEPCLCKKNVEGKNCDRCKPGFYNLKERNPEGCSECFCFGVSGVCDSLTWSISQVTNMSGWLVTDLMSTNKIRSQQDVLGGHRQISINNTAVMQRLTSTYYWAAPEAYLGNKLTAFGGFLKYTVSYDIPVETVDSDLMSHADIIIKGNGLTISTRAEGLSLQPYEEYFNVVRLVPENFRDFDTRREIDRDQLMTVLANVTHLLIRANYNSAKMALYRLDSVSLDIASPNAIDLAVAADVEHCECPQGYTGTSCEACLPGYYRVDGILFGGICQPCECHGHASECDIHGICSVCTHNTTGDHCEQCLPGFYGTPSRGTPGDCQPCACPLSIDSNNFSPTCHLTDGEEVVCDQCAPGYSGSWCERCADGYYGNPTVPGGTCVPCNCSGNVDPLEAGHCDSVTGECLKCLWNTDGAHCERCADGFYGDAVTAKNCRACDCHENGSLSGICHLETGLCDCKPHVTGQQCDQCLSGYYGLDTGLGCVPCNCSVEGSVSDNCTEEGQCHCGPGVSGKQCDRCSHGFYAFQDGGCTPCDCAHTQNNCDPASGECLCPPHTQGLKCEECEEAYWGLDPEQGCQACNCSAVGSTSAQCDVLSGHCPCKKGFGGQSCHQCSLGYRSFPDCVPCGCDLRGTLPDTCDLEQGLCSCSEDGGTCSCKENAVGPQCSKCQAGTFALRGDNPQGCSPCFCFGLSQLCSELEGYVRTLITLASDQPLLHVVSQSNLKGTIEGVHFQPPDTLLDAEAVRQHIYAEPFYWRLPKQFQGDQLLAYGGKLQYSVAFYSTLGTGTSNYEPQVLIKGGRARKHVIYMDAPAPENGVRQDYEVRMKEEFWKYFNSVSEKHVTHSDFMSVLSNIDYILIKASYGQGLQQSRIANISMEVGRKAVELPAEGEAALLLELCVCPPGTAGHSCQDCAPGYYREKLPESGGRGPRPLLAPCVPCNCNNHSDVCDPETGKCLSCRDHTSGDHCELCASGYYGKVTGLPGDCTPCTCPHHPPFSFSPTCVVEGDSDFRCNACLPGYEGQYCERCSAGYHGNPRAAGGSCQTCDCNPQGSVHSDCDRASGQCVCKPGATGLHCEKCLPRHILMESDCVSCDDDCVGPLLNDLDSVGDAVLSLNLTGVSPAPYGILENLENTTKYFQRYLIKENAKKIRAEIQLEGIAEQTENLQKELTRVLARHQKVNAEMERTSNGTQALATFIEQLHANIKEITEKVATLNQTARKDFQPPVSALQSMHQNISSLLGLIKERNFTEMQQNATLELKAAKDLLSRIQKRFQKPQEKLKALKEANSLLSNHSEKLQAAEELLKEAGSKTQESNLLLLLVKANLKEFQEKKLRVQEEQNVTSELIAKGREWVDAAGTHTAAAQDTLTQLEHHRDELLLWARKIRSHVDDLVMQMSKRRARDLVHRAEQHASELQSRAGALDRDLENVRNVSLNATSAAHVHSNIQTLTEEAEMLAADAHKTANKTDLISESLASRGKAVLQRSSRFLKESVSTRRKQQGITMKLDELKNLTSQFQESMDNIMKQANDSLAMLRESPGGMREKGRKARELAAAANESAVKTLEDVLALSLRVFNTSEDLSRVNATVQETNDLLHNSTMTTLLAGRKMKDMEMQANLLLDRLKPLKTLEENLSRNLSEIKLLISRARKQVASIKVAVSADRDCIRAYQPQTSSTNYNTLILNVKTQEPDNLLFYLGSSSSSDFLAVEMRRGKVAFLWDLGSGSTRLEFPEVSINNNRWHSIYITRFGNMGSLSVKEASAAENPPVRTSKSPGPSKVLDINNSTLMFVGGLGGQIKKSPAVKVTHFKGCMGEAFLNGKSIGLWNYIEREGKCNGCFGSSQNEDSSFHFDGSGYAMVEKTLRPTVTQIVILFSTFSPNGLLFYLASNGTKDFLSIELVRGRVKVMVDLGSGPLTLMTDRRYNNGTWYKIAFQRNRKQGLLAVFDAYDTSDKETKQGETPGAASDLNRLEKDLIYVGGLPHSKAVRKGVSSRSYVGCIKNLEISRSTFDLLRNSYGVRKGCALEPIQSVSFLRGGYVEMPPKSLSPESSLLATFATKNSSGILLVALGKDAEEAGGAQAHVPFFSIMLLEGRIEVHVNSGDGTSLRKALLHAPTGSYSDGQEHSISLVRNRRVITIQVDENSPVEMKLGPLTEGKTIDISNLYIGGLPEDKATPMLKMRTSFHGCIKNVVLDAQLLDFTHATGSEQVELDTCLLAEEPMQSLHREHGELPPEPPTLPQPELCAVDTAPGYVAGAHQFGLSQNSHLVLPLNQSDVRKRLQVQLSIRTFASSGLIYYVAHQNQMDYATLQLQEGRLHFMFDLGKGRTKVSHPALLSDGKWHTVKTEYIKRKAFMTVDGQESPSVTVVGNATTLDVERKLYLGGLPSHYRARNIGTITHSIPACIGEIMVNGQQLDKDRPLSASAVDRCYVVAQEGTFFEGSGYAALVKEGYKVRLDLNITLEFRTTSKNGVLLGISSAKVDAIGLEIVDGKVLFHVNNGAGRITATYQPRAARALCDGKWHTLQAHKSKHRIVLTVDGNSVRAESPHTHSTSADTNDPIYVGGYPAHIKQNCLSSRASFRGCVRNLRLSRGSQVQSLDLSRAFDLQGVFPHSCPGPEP

Biological target: T1, dystroglycan (UniProt Q62165)
T1 sequence: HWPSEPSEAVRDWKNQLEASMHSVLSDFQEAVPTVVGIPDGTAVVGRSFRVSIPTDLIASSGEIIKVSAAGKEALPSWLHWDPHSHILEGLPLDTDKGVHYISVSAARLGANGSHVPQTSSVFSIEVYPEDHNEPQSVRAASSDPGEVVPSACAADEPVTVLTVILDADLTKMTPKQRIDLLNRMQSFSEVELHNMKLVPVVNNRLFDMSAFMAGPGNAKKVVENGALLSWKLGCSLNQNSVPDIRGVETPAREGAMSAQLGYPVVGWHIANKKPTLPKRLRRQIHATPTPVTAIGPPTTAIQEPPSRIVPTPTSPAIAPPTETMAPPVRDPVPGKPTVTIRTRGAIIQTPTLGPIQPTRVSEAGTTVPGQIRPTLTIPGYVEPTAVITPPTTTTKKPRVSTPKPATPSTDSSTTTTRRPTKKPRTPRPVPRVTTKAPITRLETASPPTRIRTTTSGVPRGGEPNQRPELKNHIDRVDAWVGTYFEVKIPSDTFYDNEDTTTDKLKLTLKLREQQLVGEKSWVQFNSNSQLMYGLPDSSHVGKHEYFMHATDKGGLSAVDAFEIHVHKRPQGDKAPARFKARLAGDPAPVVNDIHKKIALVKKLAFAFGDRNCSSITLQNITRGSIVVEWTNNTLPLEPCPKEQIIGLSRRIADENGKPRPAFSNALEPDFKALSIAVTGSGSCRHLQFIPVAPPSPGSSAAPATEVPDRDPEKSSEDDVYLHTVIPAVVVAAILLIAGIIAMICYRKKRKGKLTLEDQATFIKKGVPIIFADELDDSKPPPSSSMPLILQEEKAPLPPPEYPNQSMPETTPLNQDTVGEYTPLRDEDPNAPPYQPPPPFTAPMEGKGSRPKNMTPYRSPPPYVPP
Test: western blot of laminin bound to cells

laminin-111 (from UniProt P19137 25-3083; P02469 22-1786; P02468 34-1607) (complex)
binding: binds
